Where no end group is shown, it is not given here.
Test: Boc solid-phase peptide synthesis; p-methyl BHA resin; HOBt/DCC
Conditions: whole synthesis

Question: For SAGATANLPRS-NH2, which isolated mass (scale 0.23 g resin) is on record?
Answer: 71 mg

Question: For MPHSFANLPLRF-NH2, which isolated mass (scale 0.25 g resin) is on record?
Answer: 26 mg
